Measurements reported in article PMC5996148.
“And” between values parts separate entries of the source, which are not always exact repeats. Equal values may be shown once. This is one part of the list.

Tests used:
Experiment in all cases: protein microarray (ProtoArray v5.0), streptavidin-Alexa Fluor 647
Settings in all cases: 3'-biotin; 20 mM Tris (pH 7.5), 5 mM MgCl2, 100 mM KCl, 0.1% Tween-20, A/T-rich and random oligonucleotide blockers; temperature not stated; high values mean tight binding
[1] = test system: Interleukin-1 family member 6 (human)
[2] = test system: Interleukin-1 receptor antagonist protein (human)
[3] = test system: Interleukin-13 (human)
[4] = test system: Interleukin-17 receptor D (human)
[5] = test system: Interleukin-18-binding protein (human)
[6] = test system: Interleukin-19 (human)
[7] = test system: Interleukin-2 (human)
[8] = test system: Interleukin-22 (human)
[9] = test system: Interleukin-24 (human)
[10] = test system: Isocitrate dehydrogenase [NADP] cytoplasmic (human)
[11] = test system: JOSD2 (human)
[12] = test system: JTB (human)
[13] = test system: JmjC domain-containing protein 4 (human)
[14] = test system: Josephin-1 (human)
[15] = test system: Junction plakoglobin (human)
[16] = test system: Junctional adhesion molecule C (human)
[17] = test system: KCNA6 (human)
[18] = test system: KCNE1L (human)
[19] = test system: KCNIP1 (human)
[20] = test system: KCNIP2 (human)

## GGGAGGCTGAGGCAGG [G4-1 biotinylated (PQS2)]
[1]
  binding signal: -0.277 z-score
[2]
  binding signal: -0.35 z-score
[3]
  binding signal: -0.232 z-score
[4]
  binding signal: -0.236 z-score
[5]
  binding signal: -0.319 z-score
[6]
  binding signal: -0.34 z-score
[7]
  binding signal: -0.323 z-score and -0.296 z-score
[8]
  binding signal: -0.333 z-score
[9]
  binding signal: -0.308 z-score and -0.317 z-score
[10]
  binding signal: -0.332 z-score and -0.318 z-score
[11]
  binding signal: -0.29 z-score
[12]
  binding signal: -0.314 z-score and -0.25 z-score
[13]
  binding signal: -0.342 z-score
[14]
  binding signal: -0.335 z-score
[15]
  binding signal: -0.342 z-score
[16]
  binding signal: -0.341 z-score
[17]
  binding signal: -0.27 z-score
[18]
  binding signal: -0.353 z-score
[19]
  binding signal: -0.357 z-score
[20]
  binding signal: -0.35 z-score and -0.361 z-score and -0.322 z-score
